Experimental data reported in publication PMC10164591, “RNA binding proteins Smaug and Cup induce CCR4–NOT-dependent deadenylation of the nanos mRNA in a reconstituted system”.
Results are given in words; binding and its absence hold for the method and conditions named. A result given as binding can be weak or reduced; the word gives no strength. For some assays here: Tags and fused reporters may be left off the sequences shown. For some assays here: Binding seen in cells or lysates may run through a third protein. One block for each molecule: values may come before it.

Assays:
[1] = biological target: T1, Smaug (split-ubiquitin two-hybrid bait) (D. melanogaster) (UniProt Q23972); assay: two-hybrid; split-ubiquitin yeast two-hybrid, NMY51 cells, Smaug as bait; growth on SC agar lacking Trp, Leu, His and adenine, three days
T1 sequence: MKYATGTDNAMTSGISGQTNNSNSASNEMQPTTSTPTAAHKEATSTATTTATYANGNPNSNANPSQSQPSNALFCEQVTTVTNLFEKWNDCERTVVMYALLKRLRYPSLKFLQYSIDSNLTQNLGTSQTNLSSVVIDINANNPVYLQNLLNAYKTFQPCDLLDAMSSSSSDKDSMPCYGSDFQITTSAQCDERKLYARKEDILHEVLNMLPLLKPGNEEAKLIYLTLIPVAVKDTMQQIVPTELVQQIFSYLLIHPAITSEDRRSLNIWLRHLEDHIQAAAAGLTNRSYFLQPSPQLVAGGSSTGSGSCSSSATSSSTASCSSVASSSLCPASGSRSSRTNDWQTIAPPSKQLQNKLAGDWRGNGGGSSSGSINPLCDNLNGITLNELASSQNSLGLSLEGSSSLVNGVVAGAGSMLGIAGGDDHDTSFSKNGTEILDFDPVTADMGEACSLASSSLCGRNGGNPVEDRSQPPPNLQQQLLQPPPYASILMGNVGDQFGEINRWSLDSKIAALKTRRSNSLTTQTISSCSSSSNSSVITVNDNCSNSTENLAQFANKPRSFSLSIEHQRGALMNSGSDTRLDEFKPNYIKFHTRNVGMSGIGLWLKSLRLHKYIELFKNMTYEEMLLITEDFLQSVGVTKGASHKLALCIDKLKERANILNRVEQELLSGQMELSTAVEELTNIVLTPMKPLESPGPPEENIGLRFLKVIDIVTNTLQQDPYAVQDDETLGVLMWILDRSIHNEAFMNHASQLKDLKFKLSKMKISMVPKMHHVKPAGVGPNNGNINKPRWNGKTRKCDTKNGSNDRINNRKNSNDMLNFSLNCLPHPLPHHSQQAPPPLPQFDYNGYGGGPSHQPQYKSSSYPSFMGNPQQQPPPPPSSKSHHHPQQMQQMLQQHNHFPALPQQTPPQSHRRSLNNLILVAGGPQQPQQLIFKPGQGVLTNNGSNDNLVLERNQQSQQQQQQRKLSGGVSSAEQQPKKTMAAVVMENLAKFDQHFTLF

[2] = biological target: ^DmCCR4–NOT_(MINI) complex (D. melanogaster); assay: SEC; Smaug (15 μg) incubated with ^DmCCR4–NOT_(MINI) (15 μg) or buffer for 1 h at 8°C; Superose 6 (about 2.4 mL) in lysis buffer without PMSF and pepstatin A (500 mM NaCl, pH 7.6); fractions by Coomassie staining and western blot against Smaug; both purified
[3] = biological target: CCR4-FLAG (D. melanogaster); assay: co-purification (FLAG affinity chromatography) + SEC; six subunits co-expressed in Sf21 by co-infection with three baculoviruses; lysate on anti-FLAG M2 agarose (CAF40-FLAG, CCR4-FLAG), FLAG peptide elution, then Superose 6; 500 mM NaCl, 50 mM HEPES-NaOH, 10 mM potassium phosphate, pH 7.6, 10% sucrose
[4] = biological target: CAF40-FLAG (D. melanogaster); assay: as above

binding [1]: binds
Molecule: NOT3 (split-ubiquitin two-hybrid prey) (D. melanogaster)

binding [1]: binds
Molecule: NOT3 C-terminal region (split-ubiquitin two-hybrid prey) (D. melanogaster) (domain or fragment)

binding [2]: binds
B1: Smaug-FLAG (protein, UniProt Q23972 1-999)
chain: T1 sequence

binding [3]: binds
binding [4]: binds
B2: His8-NOT2 (protein, UniProt Q94547 1-585)
chain: MANLNFQQPPRSIANAALAGRTTGGFGGSSLAGHVTPTSGMFQTDFANSYPGTANYGQAPQQQQQQQQQPQLSPNRNAQLSVGGPAISSGNRNANLFGQRQFVERRAMQGLGSGPMSNMGNFMQTGRGGYGTGGGGGGPLNNFHVFGGGGGSDTSTPALLDPTEFPSLTNARGQNDQTLPQSNPLQPPGSKPYGNFFTSFGMVKQPTSEQSEFTMSNEDFPALPGTQNSDGTTNAVGSVAGTGGSGGASTENHLDGTEKPMNSIVVSGSASGSSGSNVGVVGGNGLGAVGSGIGGLAVGGGGGAGSSGGGGVGGNAASGVVGGSHVGLVGSNSGIGGVNSVPNSNAMMGVGGGLGSGSGSSGSGAGGEHLNDNSSNDKLVKSGVQTSPDGKVTNIPATMVNNQFGMVGLLTFIRAAETDPNLVTLSLGTDLTGLGLNLNSQESLHTTFAGPFVAQPCRAQDVEFNVPPEYLINFAIRDKLTAPVLKKLQEDLLFFLFYTNIGDMMQLMAAAELHSREWRYHVEEKIWITRIPGIDQYEKNGTKERGTFYYFDAQSWKRLSKVFQIDPEKLDKCPNISAFMNGQSV
